Record: PubChem BioAssay AID1259425 (University of Nebraska Medical Center, 2018)

- Purpose: 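Seek colon cancer weak points whose silencing resembles KSR1 loss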 (primary screen)
- Cells: HCT116 human colon cancer cells
- Reagent: siRNA pool against human genes, 50 nM siRNA
- Measurement: 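mRNA of six signature genes measured together by branched-DNA assay after 50 nM siRNA pool, blank removed, divided by geometric mean of two housekeeping genes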
- Reading the numbers: BNIP3L mRNA: higher = more BNIP3L transcript after knockdown; NDRG1 mRNA: higher = more NDRG1 transcript after knockdown
This is a random part of about 14,000 reagents. Not all columns of the deposit are shown. No sequences are given here. Not stated in the record: the time to read-out.

With knock-down of VPS36 (vacuolar protein sorting 36 homolog), the record shows BNIP3L mRNA, set 1 = 0.122; NDRG1 mRNA, set 1 = 0.173.
OTOA (otoancorin) scored BNIP3L mRNA, set 1 = 0.0946; NDRG1 mRNA, set 1 = 0.167.
With knock-down of KRT73 (keratin 73), the screen gave BNIP3L mRNA, set 1 = 0.115; NDRG1 mRNA, set 1 = 0.119.
For SLC2A3, the entry reads BNIP3L mRNA, set 1 = 0.101; NDRG1 mRNA, set 1 = 0.144.
Against MRPL37 (mitochondrial ribosomal protein L37) the deposit lists BNIP3L mRNA, set 1 = 0.117; NDRG1 mRNA, set 1 = 0.124.
Knock-down of GCGR (glucagon receptor) came out at: BNIP3L mRNA, set 1 = 0.158; NDRG1 mRNA, set 1 = 0.111.
With knock-down of PITPNM1 (phosphatidylinositol transfer protein membrane associated 1) the results were BNIP3L mRNA, set 1 = 0.0631; NDRG1 mRNA, set 1 = 0.611.
After knock-down of GPR4 (G protein-coupled receptor 4), the screen gave BNIP3L mRNA, set 1 = 0.109; NDRG1 mRNA, set 1 = 0.342.
With knock-down of H2BC12L (H2B clustered histone 12 like), the record shows BNIP3L mRNA, set 1 = 0.112; NDRG1 mRNA, set 1 = 0.283.
Against DCAF11 (DDB1 and CUL4 associated factor 11), the entry reads BNIP3L mRNA, set 1 = 0.195; NDRG1 mRNA, set 1 = 0.507.
Against GABRA1 (gamma-aminobutyric acid type A receptor subunit alpha1), the values are BNIP3L mRNA, set 1 = 0.122; NDRG1 mRNA, set 1 = 0.159.
PCDHB5 (protocadherin beta 5) scored BNIP3L mRNA, set 1 = 0.169; NDRG1 mRNA, set 1 = 0.0802.
Against CFAP44 (cilia and flagella associated protein 44), the values are BNIP3L mRNA, set 1 = 0.0985; NDRG1 mRNA, set 1 = 0.2.
Silencing of ZNF335 (zinc finger protein 335) gave: BNIP3L mRNA, set 1 = 0.142; NDRG1 mRNA, set 1 = 0.186.
For TLL1 (tolloid like 1), the entry reads BNIP3L mRNA, set 1 = 0.0643; NDRG1 mRNA, set 1 = 0.193.
With knock-down of PPP2R1A (protein phosphatase 2 scaffold subunit Aalpha), the screen gave BNIP3L mRNA, set 1 = 0.0602; NDRG1 mRNA, set 1 = 0.103.
PDYN (prodynorphin) gave BNIP3L mRNA, set 1 = 0.138; NDRG1 mRNA, set 1 = 0.309.
TMEM47 (transmembrane protein 47) scored BNIP3L mRNA, set 1 = 0.134; NDRG1 mRNA, set 1 = 0.451.

Reformatted: entries from further up
gene | BNIP3L mRNA, set 1 | NDRG1 mRNA, set 1
SLC2A3 | 0.101 | 0.144
MRPL37 (mitochondrial ribosomal protein L37) | 0.117 | 0.124
GCGR (glucagon receptor) | 0.158 | 0.111
PITPNM1 (phosphatidylinositol transfer protein membrane associated 1) | 0.0631 | 0.611
GPR4 (G protein-coupled receptor 4) | 0.109 | 0.342

The list goes on.
For UCHL1 (ubiquitin C-terminal hydrolase L1) the deposit lists BNIP3L mRNA, set 1 = 0.088; NDRG1 mRNA, set 1 = 0.257.
Against FICD (FIC domain protein adenylyltransferase), the values are BNIP3L mRNA, set 1 = 0.0887; NDRG1 mRNA, set 1 = 0.185.
For GPAM (glycerol-3-phosphate acyltransferase, mitochondrial), the values are BNIP3L mRNA, set 1 = 0.0869; NDRG1 mRNA, set 1 = 0.0658.
SPRTN (SprT-like N-terminal domain) showed BNIP3L mRNA, set 1 = 0.094; NDRG1 mRNA, set 1 = 0.265.
Silencing of LINC02249 (long independently transcribed non-coding RNA 2249) gave: BNIP3L mRNA, set 1 = 0.105; NDRG1 mRNA, set 1 = 0.108.
With knock-down of ZNF319 (zinc finger protein 319), the screen gave BNIP3L mRNA, set 1 = 0.122; NDRG1 mRNA, set 1 = 0.511.
With knock-down of SLC37A4 the results were BNIP3L mRNA, set 1 = 0.0801; NDRG1 mRNA, set 1 = 0.13.
With knock-down of HSD17B12 (hydroxysteroid 17-beta dehydrogenase 12) the results were BNIP3L mRNA, set 1 = 0.0625; NDRG1 mRNA, set 1 = 0.139.
CNOT10 (CCR4-NOT transcription complex subunit 10) gave BNIP3L mRNA, set 1 = 0.17; NDRG1 mRNA, set 1 = 0.332.
Knock-down of BST2 (bone marrow stromal cell antigen 2) resulted in: BNIP3L mRNA, set 1 = 0.0877; NDRG1 mRNA, set 1 = 0.126.
For STK24 (serine/threonine kinase 24) the deposit lists BNIP3L mRNA, set 1 = 0.162; NDRG1 mRNA, set 1 = 0.18.
Depletion of ABHD4 (abhydrolase domain containing 4, N-acyl phospholipase B) resulted in: BNIP3L mRNA, set 1 = 0.101; NDRG1 mRNA, set 1 = 0.186.
Against TIMM23B (translocase of inner mitochondrial membrane 23 homolog B), the entry reads BNIP3L mRNA, set 1 = 0.138; NDRG1 mRNA, set 1 = 0.212.
With knock-down of GFPT1 (glutamine--fructose-6-phosphate transaminase 1) the results were BNIP3L mRNA, set 1 = 0.549; NDRG1 mRNA, set 1 = 0.23.
KDM2A (lysine demethylase 2A) showed BNIP3L mRNA, set 1 = 0.0944; NDRG1 mRNA, set 1 = 0.187.
Silencing of OR1A2 (olfactory receptor family 1 subfamily A member 2) came out at: BNIP3L mRNA, set 1 = 0.259; NDRG1 mRNA, set 1 = 0.212.
ACVR2B (activin A receptor type 2B) gave BNIP3L mRNA, set 1 = 0.0815; NDRG1 mRNA, set 1 = 0.0987.
With knock-down of RTN4 (reticulon 4) the results were BNIP3L mRNA, set 1 = 0.0658; NDRG1 mRNA, set 1 = 0.109.
